In publication PMC10646096 one finds binding data, which are given here for ten substances.

Protein sequences, listed by entry. Tags and fused reporters are not part of them.
UniProt P22314: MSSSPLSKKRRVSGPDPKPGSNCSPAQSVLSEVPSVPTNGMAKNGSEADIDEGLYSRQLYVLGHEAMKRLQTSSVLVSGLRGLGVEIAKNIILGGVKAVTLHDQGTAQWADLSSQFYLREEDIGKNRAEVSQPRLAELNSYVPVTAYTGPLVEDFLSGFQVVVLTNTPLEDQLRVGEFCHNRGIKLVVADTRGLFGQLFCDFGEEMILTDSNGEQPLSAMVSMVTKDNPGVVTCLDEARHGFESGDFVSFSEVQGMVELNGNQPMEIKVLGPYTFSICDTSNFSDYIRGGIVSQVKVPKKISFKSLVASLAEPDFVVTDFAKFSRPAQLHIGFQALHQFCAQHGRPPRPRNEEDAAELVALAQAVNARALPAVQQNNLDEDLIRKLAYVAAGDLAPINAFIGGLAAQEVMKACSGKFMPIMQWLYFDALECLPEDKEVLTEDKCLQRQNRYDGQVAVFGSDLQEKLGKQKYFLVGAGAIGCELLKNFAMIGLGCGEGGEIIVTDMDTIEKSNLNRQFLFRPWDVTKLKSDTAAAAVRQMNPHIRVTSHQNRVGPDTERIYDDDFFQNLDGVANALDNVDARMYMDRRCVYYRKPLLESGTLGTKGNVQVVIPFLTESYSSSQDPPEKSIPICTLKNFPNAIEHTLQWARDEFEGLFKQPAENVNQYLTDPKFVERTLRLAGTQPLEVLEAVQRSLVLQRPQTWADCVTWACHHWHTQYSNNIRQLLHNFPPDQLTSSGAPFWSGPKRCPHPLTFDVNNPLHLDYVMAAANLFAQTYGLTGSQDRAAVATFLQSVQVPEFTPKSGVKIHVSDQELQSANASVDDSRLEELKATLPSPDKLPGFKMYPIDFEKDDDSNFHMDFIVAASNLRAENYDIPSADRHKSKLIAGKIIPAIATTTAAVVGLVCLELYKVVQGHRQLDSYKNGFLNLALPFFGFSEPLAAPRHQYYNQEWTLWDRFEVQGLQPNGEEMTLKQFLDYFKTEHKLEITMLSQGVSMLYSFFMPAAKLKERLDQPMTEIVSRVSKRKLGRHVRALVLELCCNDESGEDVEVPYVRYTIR
UniProt P51668: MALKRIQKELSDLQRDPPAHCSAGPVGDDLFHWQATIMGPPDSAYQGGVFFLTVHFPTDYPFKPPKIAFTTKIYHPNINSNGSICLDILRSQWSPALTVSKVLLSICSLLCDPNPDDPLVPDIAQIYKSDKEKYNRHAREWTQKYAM
UniProt Q9GZZ9: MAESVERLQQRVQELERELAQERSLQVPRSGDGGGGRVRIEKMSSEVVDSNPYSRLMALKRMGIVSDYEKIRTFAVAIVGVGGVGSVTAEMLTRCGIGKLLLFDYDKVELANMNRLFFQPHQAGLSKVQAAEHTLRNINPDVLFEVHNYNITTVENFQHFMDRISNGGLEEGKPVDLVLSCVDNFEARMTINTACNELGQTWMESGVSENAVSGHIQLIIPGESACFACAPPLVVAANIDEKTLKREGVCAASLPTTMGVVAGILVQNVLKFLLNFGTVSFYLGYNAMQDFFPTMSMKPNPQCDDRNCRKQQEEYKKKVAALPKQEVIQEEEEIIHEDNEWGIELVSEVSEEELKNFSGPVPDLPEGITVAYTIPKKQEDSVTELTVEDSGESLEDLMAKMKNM
UniProt Q16763: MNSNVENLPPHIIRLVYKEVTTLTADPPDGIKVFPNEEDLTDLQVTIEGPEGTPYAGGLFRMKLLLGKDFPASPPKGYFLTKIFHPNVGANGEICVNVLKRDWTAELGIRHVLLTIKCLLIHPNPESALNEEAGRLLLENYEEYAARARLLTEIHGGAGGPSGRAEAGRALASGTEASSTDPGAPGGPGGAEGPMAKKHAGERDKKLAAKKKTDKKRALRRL
UniProt Q15819: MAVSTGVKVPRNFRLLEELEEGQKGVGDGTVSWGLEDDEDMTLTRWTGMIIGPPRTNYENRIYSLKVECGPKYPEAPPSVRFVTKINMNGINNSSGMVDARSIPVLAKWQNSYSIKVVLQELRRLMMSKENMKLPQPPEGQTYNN
UniProt Q96LR5: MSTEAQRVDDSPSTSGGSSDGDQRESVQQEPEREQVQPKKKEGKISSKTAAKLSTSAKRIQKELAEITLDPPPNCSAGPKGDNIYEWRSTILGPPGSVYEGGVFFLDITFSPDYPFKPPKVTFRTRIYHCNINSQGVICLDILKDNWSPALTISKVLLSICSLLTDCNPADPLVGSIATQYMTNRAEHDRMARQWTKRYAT
UniProt Q7Z6Z7: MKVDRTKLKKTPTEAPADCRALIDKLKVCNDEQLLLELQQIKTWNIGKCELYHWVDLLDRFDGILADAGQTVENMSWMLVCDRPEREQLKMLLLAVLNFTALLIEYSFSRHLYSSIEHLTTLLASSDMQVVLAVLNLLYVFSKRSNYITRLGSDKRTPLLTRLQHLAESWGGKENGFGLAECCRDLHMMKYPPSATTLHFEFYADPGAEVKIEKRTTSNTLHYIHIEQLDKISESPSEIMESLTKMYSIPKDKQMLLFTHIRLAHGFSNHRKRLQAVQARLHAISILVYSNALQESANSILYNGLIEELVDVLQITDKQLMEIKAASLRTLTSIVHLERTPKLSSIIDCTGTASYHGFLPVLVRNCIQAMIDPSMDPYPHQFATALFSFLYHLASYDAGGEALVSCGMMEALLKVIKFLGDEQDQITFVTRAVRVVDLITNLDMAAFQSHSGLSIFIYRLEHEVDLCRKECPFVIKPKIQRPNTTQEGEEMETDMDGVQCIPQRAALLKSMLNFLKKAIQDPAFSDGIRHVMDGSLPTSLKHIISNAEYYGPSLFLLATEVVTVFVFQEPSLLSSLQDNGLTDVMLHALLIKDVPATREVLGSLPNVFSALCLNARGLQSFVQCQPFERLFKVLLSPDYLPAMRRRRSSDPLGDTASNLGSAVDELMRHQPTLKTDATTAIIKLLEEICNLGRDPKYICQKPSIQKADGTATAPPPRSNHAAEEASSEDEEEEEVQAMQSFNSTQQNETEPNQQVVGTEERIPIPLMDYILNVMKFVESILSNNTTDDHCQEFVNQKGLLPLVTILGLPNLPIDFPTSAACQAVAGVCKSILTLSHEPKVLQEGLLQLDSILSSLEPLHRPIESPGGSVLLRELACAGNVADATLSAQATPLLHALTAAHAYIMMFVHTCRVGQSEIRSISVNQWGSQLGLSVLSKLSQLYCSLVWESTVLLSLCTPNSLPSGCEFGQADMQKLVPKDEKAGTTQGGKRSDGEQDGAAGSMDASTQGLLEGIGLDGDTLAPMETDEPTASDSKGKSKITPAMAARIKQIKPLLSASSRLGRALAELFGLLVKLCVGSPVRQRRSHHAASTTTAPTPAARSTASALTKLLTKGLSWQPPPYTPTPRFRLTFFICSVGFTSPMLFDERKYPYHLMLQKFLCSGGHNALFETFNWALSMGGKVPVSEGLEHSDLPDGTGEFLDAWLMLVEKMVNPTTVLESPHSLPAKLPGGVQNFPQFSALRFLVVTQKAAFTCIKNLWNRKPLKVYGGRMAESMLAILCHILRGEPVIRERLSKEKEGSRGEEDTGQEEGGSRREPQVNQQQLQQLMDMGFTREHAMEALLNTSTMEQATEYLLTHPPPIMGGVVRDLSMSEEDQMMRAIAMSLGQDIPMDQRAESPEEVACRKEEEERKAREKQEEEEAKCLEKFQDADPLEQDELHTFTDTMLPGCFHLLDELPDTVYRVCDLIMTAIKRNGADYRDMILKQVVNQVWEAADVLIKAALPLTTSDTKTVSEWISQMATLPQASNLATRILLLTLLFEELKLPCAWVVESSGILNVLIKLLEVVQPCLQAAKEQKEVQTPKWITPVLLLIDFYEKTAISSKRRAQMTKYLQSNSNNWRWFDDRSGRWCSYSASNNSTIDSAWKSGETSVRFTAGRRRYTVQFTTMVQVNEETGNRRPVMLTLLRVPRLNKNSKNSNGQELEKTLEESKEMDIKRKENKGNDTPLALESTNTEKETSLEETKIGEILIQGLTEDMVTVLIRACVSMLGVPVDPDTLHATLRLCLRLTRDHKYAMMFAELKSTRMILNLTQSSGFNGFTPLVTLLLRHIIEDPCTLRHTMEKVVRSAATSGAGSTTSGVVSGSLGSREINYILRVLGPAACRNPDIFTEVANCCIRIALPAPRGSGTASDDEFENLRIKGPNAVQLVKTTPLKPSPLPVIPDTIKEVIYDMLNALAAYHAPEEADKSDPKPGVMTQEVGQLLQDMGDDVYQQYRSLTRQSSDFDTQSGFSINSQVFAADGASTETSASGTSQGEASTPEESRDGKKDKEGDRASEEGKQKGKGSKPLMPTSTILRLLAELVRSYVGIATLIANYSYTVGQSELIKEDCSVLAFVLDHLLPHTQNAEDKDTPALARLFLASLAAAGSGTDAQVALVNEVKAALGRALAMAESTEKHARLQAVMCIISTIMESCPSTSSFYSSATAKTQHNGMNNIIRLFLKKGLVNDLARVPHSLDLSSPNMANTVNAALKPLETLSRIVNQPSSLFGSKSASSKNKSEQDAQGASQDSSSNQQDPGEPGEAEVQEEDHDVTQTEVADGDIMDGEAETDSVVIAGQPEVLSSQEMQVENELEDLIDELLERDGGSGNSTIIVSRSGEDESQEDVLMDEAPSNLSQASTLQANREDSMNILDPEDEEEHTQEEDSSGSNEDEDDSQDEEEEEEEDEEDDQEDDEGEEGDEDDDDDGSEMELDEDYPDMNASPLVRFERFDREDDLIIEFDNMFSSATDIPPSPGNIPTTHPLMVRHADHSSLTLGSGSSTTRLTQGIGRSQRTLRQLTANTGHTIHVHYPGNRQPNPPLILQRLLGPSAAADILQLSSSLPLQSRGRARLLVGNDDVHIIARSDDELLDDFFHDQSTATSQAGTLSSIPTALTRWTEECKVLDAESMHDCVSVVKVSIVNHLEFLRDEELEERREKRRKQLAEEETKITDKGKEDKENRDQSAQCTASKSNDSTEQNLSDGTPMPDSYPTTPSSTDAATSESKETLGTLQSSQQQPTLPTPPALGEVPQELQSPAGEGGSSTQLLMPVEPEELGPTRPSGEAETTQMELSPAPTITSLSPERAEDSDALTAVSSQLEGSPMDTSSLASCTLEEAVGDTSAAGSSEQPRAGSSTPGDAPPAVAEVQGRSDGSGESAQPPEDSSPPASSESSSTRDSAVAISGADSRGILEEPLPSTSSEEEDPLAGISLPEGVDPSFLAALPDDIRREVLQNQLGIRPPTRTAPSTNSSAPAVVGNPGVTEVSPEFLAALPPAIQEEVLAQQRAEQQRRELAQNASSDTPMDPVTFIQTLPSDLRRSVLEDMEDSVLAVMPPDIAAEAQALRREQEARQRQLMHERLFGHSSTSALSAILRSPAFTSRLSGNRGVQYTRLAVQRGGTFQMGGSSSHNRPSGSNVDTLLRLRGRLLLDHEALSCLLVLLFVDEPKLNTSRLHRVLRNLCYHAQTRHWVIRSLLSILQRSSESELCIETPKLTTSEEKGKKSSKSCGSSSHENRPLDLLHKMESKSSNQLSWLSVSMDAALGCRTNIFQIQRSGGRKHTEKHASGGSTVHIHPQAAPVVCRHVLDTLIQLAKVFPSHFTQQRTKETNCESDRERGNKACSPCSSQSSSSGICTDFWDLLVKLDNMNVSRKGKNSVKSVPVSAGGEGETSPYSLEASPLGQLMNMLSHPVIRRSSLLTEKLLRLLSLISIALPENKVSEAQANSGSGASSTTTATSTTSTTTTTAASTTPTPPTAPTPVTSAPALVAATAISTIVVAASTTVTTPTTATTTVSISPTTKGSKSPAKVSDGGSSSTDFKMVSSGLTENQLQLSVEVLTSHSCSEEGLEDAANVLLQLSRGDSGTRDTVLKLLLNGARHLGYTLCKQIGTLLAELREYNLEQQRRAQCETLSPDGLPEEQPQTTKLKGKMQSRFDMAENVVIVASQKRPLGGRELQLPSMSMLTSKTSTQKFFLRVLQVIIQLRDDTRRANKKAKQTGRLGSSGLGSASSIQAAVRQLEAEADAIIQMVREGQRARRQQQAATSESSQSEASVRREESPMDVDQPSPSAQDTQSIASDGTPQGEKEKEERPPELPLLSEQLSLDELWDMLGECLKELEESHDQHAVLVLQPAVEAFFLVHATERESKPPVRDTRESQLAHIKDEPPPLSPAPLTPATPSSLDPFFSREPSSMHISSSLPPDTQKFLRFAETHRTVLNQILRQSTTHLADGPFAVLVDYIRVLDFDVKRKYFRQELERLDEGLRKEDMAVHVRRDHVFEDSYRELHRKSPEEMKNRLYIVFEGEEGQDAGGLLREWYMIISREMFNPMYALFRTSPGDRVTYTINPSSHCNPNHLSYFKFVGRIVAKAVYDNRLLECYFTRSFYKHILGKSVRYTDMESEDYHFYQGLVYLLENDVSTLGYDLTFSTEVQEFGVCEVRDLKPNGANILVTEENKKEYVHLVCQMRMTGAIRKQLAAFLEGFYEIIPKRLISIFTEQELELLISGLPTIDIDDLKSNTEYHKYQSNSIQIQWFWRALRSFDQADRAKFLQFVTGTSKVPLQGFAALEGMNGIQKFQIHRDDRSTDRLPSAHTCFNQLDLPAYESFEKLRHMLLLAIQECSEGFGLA

Results are given in words; binding and its absence hold for the method and conditions named. Binding seen in cells or lysates may run through a third protein. Here binding means that the protein was enriched with, or labelled near, the bait; the list need not be complete. For part of these data: No binding means not detected with the bait.

Some targets named below: UBA1 (human) (UniProt P22314); UBE2D1 (human) (UniProt P51668); UBE2M (human) (UniProt P61081); UBE2I (human) (UniProt P63279); UBA5 (human) (UniProt Q9GZZ9).
Holding throughout (experiment): affinity purification with mass spectrometry; C-terminally FLAG-tagged E1/E2 baits transfected in HEK293T; NP40 lysate, FLAG affinity resin at 4 °C overnight, eluted with FLAG peptide; spectral counting, SAINT >= 0.65 against no-FLAG controls; 3 replicates a bait, 10 controls
For another assay, the target named is T1, SAE1 (human) (UniProt Q9UBE0).
T1 sequence: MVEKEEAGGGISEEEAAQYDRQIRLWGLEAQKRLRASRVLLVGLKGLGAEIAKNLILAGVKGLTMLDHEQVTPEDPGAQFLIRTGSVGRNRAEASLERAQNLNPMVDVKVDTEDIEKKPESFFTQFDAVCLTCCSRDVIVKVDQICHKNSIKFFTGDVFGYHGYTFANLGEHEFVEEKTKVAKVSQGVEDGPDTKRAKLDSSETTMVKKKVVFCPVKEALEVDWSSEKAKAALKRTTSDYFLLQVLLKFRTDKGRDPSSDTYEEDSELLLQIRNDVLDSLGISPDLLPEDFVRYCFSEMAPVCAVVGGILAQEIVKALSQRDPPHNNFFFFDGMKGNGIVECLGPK

For the next assay, the target named is T2, UBA2 (human) (UniProt Q9UBT2).
T2 sequence: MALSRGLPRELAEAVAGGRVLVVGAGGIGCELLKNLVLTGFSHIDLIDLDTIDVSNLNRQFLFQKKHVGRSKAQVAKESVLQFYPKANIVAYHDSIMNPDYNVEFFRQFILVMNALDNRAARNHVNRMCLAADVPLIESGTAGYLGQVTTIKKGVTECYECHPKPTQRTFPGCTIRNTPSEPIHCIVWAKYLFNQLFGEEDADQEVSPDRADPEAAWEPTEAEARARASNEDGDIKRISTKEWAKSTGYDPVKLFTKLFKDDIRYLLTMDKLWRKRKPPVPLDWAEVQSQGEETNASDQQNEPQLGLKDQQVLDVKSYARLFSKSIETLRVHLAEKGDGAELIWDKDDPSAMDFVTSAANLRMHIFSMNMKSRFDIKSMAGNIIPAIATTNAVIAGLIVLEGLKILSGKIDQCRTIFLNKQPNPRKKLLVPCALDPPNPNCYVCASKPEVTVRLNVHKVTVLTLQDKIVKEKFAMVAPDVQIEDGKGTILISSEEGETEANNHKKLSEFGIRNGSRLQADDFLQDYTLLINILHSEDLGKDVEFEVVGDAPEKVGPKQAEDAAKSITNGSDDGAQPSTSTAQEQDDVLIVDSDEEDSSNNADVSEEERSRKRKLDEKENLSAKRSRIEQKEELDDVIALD

The target in a further assay is T3, ATG7 (human) (UniProt O95352).
T3 sequence: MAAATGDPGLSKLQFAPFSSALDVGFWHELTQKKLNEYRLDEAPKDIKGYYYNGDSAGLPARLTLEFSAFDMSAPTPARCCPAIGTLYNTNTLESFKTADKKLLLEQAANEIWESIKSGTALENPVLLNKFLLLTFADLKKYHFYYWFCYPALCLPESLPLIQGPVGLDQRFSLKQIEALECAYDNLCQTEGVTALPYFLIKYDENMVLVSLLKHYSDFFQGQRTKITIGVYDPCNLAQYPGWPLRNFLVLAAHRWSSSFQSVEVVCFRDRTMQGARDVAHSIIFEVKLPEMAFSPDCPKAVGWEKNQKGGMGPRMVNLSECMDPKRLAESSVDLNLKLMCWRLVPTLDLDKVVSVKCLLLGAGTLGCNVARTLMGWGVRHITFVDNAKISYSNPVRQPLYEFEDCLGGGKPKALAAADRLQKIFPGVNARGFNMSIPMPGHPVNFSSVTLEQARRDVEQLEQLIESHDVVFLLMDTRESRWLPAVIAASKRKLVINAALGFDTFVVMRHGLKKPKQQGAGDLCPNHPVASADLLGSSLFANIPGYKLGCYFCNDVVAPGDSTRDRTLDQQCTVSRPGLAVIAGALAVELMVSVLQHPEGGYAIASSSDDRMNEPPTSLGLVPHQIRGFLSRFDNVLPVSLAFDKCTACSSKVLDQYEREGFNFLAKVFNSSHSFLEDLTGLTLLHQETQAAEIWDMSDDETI

The target of the next assay is T4, NAE1 (human) (UniProt Q13564).
T4 sequence: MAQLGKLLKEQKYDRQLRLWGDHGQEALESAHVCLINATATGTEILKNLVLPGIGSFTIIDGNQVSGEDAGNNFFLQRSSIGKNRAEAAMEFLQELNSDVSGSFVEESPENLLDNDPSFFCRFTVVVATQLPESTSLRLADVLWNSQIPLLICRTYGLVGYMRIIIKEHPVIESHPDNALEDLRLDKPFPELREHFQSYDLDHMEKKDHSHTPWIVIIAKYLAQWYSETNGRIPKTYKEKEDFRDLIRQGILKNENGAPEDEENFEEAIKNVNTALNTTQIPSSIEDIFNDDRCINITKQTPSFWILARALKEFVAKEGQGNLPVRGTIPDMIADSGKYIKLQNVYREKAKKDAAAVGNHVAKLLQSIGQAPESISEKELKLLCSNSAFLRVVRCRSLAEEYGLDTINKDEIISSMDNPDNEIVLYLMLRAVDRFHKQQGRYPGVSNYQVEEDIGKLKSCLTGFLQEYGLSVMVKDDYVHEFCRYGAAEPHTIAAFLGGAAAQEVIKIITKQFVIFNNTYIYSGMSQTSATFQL

Another assay deals with T5, UBA6 (human) (UniProt A0AVT1).
T5 sequence: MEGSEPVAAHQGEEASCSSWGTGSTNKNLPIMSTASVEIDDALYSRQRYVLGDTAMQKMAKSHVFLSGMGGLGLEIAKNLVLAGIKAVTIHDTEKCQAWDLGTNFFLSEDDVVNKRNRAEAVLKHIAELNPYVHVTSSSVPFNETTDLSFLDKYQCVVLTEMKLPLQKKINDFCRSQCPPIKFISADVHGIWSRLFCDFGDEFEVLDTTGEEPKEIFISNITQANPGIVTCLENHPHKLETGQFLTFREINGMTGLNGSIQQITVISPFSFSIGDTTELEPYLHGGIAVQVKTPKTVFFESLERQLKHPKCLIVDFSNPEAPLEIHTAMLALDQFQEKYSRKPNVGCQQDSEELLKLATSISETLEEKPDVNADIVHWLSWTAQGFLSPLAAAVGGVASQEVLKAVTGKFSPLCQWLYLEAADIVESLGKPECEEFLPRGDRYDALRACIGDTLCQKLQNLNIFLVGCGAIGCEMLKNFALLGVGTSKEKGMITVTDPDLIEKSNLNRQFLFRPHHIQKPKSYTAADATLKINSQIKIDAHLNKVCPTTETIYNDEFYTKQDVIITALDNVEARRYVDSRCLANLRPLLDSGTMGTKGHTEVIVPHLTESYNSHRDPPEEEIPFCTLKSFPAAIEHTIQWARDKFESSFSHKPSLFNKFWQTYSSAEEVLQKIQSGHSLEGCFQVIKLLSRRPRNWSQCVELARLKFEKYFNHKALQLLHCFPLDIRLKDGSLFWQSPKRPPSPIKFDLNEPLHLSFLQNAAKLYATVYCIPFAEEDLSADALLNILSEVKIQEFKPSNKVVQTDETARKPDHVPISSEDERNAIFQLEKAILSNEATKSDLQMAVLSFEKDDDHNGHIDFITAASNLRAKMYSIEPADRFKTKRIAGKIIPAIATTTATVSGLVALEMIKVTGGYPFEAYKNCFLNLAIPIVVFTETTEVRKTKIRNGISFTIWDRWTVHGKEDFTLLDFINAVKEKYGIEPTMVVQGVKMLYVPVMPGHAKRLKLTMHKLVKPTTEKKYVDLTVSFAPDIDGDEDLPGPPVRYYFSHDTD

On to “UBE2S (from UniProt Q16763 1-222) (enzyme)”, for which the binding result with UBA1 (human) was “binds”.
For “HECTD1 (from UniProt Q9ULT8 1-2610) (enzyme)”, in the assay with UBE2D1 (human), the binding result is recorded as “binds”.
Consider “UBA3 (from UniProt Q8TBC4 1-463) (enzyme)”, for which the binding result with UBE2M (human) is on record as “binds”.
Turning to SUMO3 (from UniProt P55854 1-92), the binding result with UBE2I (human) is recorded as “binds”.
“UBE2R1 (CDC34) (from UniProt P49427 1-236) (enzyme)”: the binding result in the assay with UBA1 (human) was “binds”.
Regarding UBE2V2 (from UniProt Q15819 1-145), the binding entry with SAE1 (human), with UBA2 (human), with ATG7 (human), with NAE1 (human), with UBA6 (human) and with UBA5 (human) was “no binding” in each case.
For “UBE2E2 (from UniProt Q96LR5 1-201) (enzyme)”, the binding result in the assay with UBA1 (human) was “binds”.
Turning to “HUWE1 (from UniProt Q7Z6Z7 1-4374) (enzyme)”, in the assay with UBE2D1 (human), the binding entry is “binds”.
The same measure, in the same setting: the value for “HERC1 (from UniProt Q15751 1-4861) (enzyme)” was “binds”.
“UBE2L6 (from UniProt O14933 1-153) (enzyme)”: the binding entry with UBA1 (human) was “binds”.
